In publication PMC5979003:
No constants are given. Whether binding was seen depends on the method and setting. In cells and extracts the contact can be indirect. Some results given as binding are weak or reduced against the parent protein; the word gives no strength. Each block holds one substance with its values, some of them ahead of it.

The chains behind the UniProt entries cited, without tags or fusion partners.
UniProt P09874: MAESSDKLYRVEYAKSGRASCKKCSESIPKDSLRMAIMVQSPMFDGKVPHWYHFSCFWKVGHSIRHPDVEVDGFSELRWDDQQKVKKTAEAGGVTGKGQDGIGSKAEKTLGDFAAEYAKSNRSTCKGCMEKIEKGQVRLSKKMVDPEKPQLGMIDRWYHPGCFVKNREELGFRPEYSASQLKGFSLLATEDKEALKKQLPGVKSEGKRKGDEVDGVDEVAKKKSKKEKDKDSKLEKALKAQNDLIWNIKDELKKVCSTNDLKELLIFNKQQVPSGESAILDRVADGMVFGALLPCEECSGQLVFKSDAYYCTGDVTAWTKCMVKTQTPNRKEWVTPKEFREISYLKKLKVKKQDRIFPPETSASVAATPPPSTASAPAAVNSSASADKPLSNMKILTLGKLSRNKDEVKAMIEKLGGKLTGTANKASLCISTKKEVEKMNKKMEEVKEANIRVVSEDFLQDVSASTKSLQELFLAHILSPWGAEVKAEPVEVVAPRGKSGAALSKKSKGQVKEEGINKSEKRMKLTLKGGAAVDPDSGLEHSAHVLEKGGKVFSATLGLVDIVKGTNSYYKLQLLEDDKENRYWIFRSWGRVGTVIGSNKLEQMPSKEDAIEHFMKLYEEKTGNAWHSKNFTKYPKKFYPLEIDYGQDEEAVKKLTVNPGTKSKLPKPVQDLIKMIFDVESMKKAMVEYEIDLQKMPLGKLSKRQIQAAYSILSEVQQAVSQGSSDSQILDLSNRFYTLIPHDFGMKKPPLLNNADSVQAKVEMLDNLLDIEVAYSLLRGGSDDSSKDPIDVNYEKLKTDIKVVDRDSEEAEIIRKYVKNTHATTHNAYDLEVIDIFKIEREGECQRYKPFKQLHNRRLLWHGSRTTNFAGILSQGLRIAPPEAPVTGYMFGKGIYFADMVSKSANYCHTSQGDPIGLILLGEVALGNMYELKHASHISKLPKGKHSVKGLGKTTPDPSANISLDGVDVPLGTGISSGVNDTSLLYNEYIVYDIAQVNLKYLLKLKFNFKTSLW
UniProt P54098: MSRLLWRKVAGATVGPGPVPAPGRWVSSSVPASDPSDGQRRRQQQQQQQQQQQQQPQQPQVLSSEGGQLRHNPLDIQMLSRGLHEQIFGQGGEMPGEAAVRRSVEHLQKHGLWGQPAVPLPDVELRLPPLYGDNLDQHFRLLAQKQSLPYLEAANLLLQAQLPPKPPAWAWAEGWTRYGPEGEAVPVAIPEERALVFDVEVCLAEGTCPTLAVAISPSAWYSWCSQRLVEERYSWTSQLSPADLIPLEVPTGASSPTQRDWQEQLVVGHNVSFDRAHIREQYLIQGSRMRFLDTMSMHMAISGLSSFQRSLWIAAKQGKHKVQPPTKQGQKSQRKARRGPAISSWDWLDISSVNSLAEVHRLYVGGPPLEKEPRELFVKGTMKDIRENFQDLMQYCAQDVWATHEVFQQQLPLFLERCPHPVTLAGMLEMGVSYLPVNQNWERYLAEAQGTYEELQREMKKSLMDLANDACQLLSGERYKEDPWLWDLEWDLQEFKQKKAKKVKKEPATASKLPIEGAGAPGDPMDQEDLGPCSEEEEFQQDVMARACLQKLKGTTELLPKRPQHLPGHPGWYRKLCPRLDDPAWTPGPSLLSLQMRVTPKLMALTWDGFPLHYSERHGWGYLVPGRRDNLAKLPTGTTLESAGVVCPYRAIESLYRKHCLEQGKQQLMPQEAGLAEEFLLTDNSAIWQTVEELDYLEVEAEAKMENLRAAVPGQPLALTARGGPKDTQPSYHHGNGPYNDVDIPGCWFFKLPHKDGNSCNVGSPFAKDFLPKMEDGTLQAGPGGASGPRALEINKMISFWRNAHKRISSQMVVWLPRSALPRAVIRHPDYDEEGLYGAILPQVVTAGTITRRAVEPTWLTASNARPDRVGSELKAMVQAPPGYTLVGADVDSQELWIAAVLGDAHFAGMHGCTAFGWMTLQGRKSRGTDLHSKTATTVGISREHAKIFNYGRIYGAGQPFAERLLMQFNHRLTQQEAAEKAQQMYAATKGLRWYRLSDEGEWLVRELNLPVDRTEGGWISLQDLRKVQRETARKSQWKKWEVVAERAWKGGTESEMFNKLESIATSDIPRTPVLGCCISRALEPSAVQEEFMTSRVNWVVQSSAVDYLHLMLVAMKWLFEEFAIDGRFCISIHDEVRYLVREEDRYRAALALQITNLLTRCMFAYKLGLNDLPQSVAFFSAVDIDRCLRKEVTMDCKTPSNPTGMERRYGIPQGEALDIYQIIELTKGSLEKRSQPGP
UniProt P11103: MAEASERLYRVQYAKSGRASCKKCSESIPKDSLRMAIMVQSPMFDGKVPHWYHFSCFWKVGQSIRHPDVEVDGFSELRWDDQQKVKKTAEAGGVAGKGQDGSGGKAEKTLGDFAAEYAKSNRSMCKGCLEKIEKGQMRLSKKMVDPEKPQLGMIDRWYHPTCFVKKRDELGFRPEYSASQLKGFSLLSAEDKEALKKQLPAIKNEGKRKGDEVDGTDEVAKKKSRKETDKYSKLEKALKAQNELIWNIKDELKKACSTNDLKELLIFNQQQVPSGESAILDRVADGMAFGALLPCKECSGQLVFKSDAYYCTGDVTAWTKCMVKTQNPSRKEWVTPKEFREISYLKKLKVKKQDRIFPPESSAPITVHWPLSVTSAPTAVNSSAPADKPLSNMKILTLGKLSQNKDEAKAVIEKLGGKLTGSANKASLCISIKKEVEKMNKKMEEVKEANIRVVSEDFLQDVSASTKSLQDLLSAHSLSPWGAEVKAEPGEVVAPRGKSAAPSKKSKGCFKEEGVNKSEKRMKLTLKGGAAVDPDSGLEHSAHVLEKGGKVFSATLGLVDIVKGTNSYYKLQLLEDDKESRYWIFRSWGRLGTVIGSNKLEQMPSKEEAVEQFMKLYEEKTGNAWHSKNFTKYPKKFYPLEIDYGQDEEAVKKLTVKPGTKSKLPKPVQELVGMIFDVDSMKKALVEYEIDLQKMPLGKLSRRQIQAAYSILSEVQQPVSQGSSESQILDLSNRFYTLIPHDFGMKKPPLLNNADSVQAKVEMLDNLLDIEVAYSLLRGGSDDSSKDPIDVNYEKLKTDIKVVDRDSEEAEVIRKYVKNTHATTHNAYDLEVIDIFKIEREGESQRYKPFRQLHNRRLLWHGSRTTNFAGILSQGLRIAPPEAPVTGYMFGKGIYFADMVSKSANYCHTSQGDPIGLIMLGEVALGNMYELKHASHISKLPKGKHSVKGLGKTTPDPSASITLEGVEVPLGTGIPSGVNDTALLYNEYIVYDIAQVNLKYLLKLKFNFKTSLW

Legend:
[1] = target: Poly(ADP-ribose) polymerase 1 (PARP1), human (human (endogenous in HeLa)) (UniProt P09874); experiment: co-IP; HeLa cells infected with T. cruzi (1:5, 24 h), uninfected or treated with 50 μM H2O2; cross-IP/Western blot with antibodies against POLG and PARP1
[2] = target: DNA polymerase γ catalytic subunit (POLG), human (human (endogenous in HeLa)) (UniProt P54098); experiment: as above
[3] = target: T1, DNA polymerase γ catalytic subunit (POLG), mouse (mouse (endogenous in heart)) (UniProt P54099); experiment: co-IP; pooled cardiac mitochondria of normal and chronically T. cruzi infected (chagasic) WT mice; immunoprecipitation with anti-POLG antibody (20 μg, overnight, 4°C), Protein G agarose columns, elution in 0.2 M glycine pH 2.5; input, flow-through and POLG-binding fractions blotted for PARP1, Twinkle, SSBP1
T1 sequence: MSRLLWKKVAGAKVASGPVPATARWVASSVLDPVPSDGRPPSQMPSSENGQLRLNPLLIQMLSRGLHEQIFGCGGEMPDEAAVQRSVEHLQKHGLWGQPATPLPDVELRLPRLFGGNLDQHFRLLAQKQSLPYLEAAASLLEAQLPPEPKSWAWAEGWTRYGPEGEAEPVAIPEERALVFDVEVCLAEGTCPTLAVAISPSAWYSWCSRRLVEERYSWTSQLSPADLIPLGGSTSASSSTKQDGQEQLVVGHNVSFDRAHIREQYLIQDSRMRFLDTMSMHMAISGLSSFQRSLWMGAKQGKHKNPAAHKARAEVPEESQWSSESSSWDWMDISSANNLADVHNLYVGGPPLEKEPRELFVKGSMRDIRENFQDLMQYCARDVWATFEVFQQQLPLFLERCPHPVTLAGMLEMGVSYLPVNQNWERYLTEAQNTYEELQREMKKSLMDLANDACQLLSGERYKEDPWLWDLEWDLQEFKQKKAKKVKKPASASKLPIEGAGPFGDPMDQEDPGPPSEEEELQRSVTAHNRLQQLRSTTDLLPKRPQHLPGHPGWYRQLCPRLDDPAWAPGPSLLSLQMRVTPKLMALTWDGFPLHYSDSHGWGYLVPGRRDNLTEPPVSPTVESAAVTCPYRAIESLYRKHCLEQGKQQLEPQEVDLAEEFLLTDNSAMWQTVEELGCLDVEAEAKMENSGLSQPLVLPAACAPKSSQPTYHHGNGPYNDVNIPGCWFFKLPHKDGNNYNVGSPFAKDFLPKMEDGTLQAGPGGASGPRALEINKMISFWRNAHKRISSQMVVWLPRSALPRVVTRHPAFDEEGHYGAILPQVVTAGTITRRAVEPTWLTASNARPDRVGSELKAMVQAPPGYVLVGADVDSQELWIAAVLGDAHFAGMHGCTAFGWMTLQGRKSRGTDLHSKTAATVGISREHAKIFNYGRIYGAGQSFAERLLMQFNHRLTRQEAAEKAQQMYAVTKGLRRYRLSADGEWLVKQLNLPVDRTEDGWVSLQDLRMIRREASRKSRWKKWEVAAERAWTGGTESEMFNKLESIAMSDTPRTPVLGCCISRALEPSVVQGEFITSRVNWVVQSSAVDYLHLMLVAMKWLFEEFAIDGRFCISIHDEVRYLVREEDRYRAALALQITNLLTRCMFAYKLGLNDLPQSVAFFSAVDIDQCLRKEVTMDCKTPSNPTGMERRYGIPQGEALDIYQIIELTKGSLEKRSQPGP

- binding [1]: binds
Substance: DNA polymerase γ catalytic subunit (POLG), human (from UniProt P54098 1-1239)

- binding [2]: binds
Substance: Poly(ADP-ribose) polymerase 1 (PARP1), human (from UniProt P09874 1-1014)

- binding [3]: binds
Substance: Poly(ADP-ribose) polymerase 1 (PARP1), mouse (from UniProt P11103 1-1013)
